Test results from patent US10105357B2, “Indication of antibiotic drugs for preparation of cancer inhibition pharmaceutical composition” (LAUNX BIOMEDICAL CO., LTD., priority 2014, dated 2018).
At least one compound was matched to its structure with a doubt left. Some entries repeat one wording, which the source may state once for all of them.

These compounds were tested on cancer cell lines (assay: Cell viability analysis (WST-1) on cancer cell lines). Conditions: drug 10 μM, 72 hours, Table 3.
Type: cell-based, human
`CCOC(=O)CCC(=O)O[C@H]1[C@H](O[C@@H]2[C@@H](C)[C@H](O[C@H]3C[C@@](C)(OC)[C@@H](O)[C@H](C)O3)[C@@H](C)C(=O)O[C@H](CC)[C@@](C)(O)[C@H](O)[C@@H](C)C(=O)[C@H](C)C[C@@]2(C)O)O[C@H](C)C[C@@H]1N(C)C` [Erythromycin Ethylsuccinate] was tested, and the “inhibition effect on different cancer cell lines” value was “significant inhibition effect”.
`CN(C)[C@@H]1C(O)=C(C(=O)NCN2CCCC2)C(=O)[C@@]2(O)C(O)=C3C(=O)c4c(O)cccc4[C@@](C)(O)[C@H]3C[C@@H]12` [Rolitetracycline] was tested, and the “inhibition effect on different cancer cell lines” value was “significant inhibition effect”.
In the case of `Cc1cc2c(s1)Nc1ccccc1N=C2N1CCN(C)CC1` [Olanzapine (Zyprexa), Olanzapine], the “inhibition effect on different cancer cell lines” value is reported as “significant inhibition effect”.
In the case of `CCC[C@H](NC(=O)[C@@H]1[C@H]2CCC[C@H]2CN1C(=O)[C@@H](NC(=O)[C@@H](NC(=O)c1cnccn1)C1CCCCC1)C(C)(C)C)C(=O)C(=O)NC1CC1` [Telaprevir (VX-950), Telaprevir], the “inhibition effect on different cancer cell lines” value is reported as “significant inhibition effect”.
